Reference: paper PMC11881497
Construct, isoform or probe ends are uncertain for at least one entry. Tags and fusion partners may be left off the protein sequences shown.

Molecular target: T1, WRKY40 (UniProt A0A7S5EBG7)
T1 sequence (looked up, limits assumed): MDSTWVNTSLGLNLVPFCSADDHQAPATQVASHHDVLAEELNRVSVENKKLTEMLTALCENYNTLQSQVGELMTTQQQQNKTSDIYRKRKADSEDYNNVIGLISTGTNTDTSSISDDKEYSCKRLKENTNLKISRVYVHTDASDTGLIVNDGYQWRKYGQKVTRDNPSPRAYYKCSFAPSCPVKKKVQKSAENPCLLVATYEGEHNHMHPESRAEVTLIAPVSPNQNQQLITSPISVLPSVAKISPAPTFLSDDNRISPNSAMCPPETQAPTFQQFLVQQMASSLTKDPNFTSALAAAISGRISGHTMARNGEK
Experiment: EMSA
Settings: cold competitor reduces binding; EMSA: oligos diluted in ddH2O, 60 min at 25 °C with protein; 6% native PAGE, 0.5x TBE, 4 °C, 100 V; binding buffer, salt and pH not stated; recombinant protein; label: biotin 5' and 3'

ACAATTCACTCTTGACTTCCAGATAGACTTT (double strand) [LRRpro W-box probe]
binding result: binds
